Measurements from article PMC3052438.
No constants are given. Whether binding was seen depends on the method and setting. For some of these results: Binding seen in cells or lysates may run through a third protein. Some results given as binding are weak or reduced against the parent protein; the word gives no strength.

Amino acid sequences for entries named in this document (tags omitted). A change or cut given only in a name is not applied to a line headed by its entry.
UniProt P33895: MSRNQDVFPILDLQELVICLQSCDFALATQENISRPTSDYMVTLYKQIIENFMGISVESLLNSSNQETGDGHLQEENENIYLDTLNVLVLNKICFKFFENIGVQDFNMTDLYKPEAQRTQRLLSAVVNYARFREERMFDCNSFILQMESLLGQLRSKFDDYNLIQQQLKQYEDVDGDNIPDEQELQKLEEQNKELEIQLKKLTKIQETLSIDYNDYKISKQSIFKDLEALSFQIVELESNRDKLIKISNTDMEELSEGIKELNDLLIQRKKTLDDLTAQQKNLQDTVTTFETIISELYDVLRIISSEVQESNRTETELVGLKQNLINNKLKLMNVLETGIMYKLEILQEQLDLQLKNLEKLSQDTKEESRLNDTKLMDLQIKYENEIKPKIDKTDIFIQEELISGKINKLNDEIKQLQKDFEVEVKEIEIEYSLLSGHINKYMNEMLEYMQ
UniProt P40460: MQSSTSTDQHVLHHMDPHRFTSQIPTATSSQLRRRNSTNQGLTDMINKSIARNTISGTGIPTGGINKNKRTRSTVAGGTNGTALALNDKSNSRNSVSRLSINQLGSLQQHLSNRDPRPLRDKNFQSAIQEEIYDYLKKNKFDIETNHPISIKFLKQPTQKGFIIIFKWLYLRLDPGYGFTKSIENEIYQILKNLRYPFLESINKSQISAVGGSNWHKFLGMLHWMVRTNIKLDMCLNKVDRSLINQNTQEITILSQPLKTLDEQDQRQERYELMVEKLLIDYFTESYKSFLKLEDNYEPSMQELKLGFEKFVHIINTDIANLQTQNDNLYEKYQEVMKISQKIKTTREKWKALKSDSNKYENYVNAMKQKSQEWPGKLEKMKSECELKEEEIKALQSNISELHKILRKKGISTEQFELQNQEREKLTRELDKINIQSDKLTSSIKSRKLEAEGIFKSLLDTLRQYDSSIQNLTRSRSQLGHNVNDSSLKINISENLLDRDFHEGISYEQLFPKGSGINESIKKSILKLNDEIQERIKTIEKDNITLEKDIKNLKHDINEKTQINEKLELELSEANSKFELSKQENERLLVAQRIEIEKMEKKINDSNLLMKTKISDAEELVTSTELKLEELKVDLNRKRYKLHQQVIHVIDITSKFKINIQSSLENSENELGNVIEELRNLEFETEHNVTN

How the values were obtained:
Nuf2-myc (S. cerevisiae) = Nuf2-myc (S. cerevisiae) (UniProt P33895); assay: co-IP; Nuf2-myc immunoprecipitated with a myc antibody, Ndc80-HA detected by western blotting with an HA antibody; cells treated with α factor, released at 35°C and harvested after 70 min (majority in metaphase)
[1] = biological target: Nuf2 (two-hybrid fusion) (S. cerevisiae) (UniProt P33895); assay: two-hybrid; proteins fused with a DNA binding domain or an activation domain; cells spotted on histidine drop-out plates, 35°C, 48 hr; growth suggests interaction

binding (Nuf2-myc (S. cerevisiae)) | binding [1] | Substance
binds |  | Ndc80Δ490-510, tagged with HA (from UniProt P40460 1-691)
 | binds | Ndc80Δ490-510 (two-hybrid fusion) (from UniProt P40460 1-691)
binds |  | Ndc80 wild-type, tagged with HA (from UniProt P40460 1-691)
 | binds | wild-type Ndc80 (two-hybrid fusion) (from UniProt P40460 1-691)
